For at least one compound, name, drawing or mass did not settle the structure. Positions of bridges follow the written chain, without caps; N, C: chain ends. Residues, ends and D or L forms follow the SMILES beside them.
biological target: T1, extracellular domain of the IL-5 receptor α-chain (IL-5Rα) (Homo sapiens, UniProt Q01344); test: [125-I] IL-5 competition binding assay; details: free peptide; inhibition of [125-I] IL-5 binding to IL-5Rα ECD (for some peptides a TF-1 microphysiometer assay was used instead); read-out: Affinity (IC50, indicated symbolically)
T1 construct: HPAP tail (carboxy-terminal remnant of the glycophospholipid anchor signal); made in house; host or cells: recombinant host cells
T1 sequence (Q01344 21-342 limits assumed): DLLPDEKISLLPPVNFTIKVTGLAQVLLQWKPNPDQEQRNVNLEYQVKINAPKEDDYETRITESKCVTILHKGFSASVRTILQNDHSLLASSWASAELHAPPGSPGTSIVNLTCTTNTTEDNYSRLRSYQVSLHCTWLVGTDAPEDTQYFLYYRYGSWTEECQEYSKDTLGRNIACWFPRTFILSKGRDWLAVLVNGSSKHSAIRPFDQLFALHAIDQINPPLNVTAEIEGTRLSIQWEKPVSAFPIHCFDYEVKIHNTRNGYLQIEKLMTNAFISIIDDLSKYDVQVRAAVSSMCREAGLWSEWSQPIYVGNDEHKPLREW

Structure (SMILES)	IC50 [nM]
CSCC[C@@H]1NC(=O)[C@H](Cc2c[nH]c3ccccc23)NC(=O)[C@H](CCCNC(=N)N)NC(=O)[C@H](Cc2c[nH]cn2)NC(=O)[C@H](CC(N)=O)NC(=O)[C@H](C)NC(=O)[C@H](C(C)C)NC(=O)[C@H](CC(=O)O)NC(=O)[C@H](CCCNC(=N)N)NC(=O)[C@H]([C@@H](C)O)NC(=O)[C@@H](NC(=O)[C@@H](NC(=O)[C@H](CCC(=O)O)NC(=O)CN)C(C)C)CSSC[C@@H](C(=O)NCC(=O)N[C@H](C(=O)N[C@@H](CC(=O)O)C(=O)O)C(C)C)NC1=O [SEQ ID NO:10, G E V C T R D V A N H R W M C G V D] (H-GEVCTRDVANHRWMCGVD-OH; disulfide 4-15 (inferred); N-terminus and C-terminus assumed)	≤ 500
CC[C@H](C)[C@@H]1NC(=O)[C@@H](NC(=O)[C@H](CC(=O)O)NC(=O)[C@H](CCC(=O)O)NC(=O)CN)CSSC[C@@H](C(=O)NCC(=O)N[C@H](C(=O)N[C@@H](CC(=O)O)C(=O)O)C(C)C)NC(=O)[C@H](CC(=O)O)NC(=O)[C@H](Cc2c[nH]c3ccccc23)NC(=O)[C@H](CO)NC(=O)[C@H](Cc2c[nH]cn2)NC(=O)[C@H]([C@@H](C)O)NC(=O)[C@H](CCCNC(=N)N)NC(=O)[C@H](C(C)C)NC(=O)[C@H]([C@@H](C)CC)NC(=O)[C@H](CCCNC(=N)N)NC1=O [SEQ ID NO:11, G E D C I R I V R T H S W D C G V D] (H-GEDCIRIVRTHSWDCGVD-OH; disulfide 4-15 (inferred); N-terminus and C-terminus assumed)	≤ 100000
CC(C)[C@H](N)C(=O)N[C@H](C(=O)N[C@@H](CC(=O)O)C(=O)N[C@H]1CSSC[C@@H](C(=O)NCC(=O)N[C@@H](CCC(=O)O)C(=O)N[C@@H](CCC(=O)O)C(=O)O)NC(=O)[C@H](Cc2ccccc2)NC(=O)[C@H](Cc2c[nH]c3ccccc23)NC(=O)[C@H]([C@@H](C)O)NC(=O)[C@H](Cc2c[nH]cn2)NC(=O)[C@H]([C@@H](C)O)NC(=O)[C@H](C)NC(=O)[C@H](C(C)C)NC(=O)[C@H](CO)NC(=O)[C@H](CCCNC(=N)N)NC(=O)[C@H](Cc2c[nH]c3ccccc23)NC1=O)C(C)C [SEQ ID NO:12, V V D C W R S V A T H T W F C G E E] (H-VVDCWRSVATHTWFCGEE-OH; disulfide 4-15 (inferred); N-terminus and C-terminus assumed)	≤ 500
CC[C@H](C)[C@@H]1NC(=O)[C@H](CCCNC(=N)N)NC(=O)[C@H]([C@@H](C)O)NC(=O)[C@@H](NC(=O)CNC(=O)[C@H](CC(=O)O)NC(=O)[C@@H](N)Cc2ccccc2)CSSC[C@@H](C(=O)N[C@@H](CC(=O)O)C(=O)N[C@@H](CC(C)C)C(=O)N[C@@H](CC(=O)O)C(=O)O)NC(=O)[C@H](CC(=O)O)NC(=O)[C@H](Cc2c[nH]c3ccccc23)NC(=O)[C@H](CO)NC(=O)[C@H](CCCNC(=N)N)NC(=O)[C@H]([C@@H](C)O)NC(=O)[C@H](C)NC(=O)[C@H](C(C)C)NC1=O [SEQ ID NO:13, F D G C T R I V A T R S W D C D L D] (H-FDGCTRIVATRSWDCDLD-OH; disulfide 4-15 (inferred); N-terminus and C-terminus assumed)	500

Reference: patent publication US5654276A, “Peptides and compounds that bind to the IL-5 receptor” (Affymax Technologies N.V., priority 1995, dated 1997)
